Results are given in words; binding and its absence hold for the method and conditions named. Binding calls can cover weak binding; strength is not graded here.
Molecular target: T1, VmD6PKL2 (D6 PROTEIN KINASE LIKE 2 of V. montana), two-hybrid bait PGBKT7-VmD6PKL2 (Vernicia montana)
T1 sequence: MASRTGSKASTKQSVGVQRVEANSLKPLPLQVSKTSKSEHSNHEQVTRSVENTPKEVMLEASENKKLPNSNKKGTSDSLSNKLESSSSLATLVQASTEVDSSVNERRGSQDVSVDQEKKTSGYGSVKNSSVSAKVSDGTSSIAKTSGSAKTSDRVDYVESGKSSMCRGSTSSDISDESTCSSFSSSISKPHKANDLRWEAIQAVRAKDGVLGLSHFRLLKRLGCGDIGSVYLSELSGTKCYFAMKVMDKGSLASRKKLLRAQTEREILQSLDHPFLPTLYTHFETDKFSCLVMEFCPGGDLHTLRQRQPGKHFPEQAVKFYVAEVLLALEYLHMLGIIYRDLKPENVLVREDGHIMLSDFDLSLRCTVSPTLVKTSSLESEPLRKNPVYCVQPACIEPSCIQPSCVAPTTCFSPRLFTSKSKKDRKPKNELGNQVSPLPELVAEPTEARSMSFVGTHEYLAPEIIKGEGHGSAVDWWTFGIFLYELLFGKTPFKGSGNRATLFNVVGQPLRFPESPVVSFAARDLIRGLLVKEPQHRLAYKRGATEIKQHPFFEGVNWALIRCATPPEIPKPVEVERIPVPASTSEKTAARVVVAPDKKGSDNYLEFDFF
Assay: two-hybrid; Gal4 system; bait PGBKT7-VmD6PKL2 in Y2HGold mated with PGADT7-cDNA library of Fof-1-infected V. montana root in Y187; SD/-Trp-Leu-His/X-α-Gal/AbA, then SD/-Ade-Trp-Leu-His/X-α-Gal/AbA; prey plasmids retransfected for one-to-one-interaction screening

binding: binds
Substance: VmABCI15 (ATP-binding cassette I15), two-hybrid prey from the V. montana root cDNA library (Vernicia montana)

Reference: publication PMC8558330
